Patent US20040157796A1 (priority 2002, published 2004)

Test: Phase solubility determination of cyclodextrin K1:1 binding constants (Higuchi & Connors)
Format: physicochemical
Conditions: 25° C., 10 mM disodium phosphate buffer pH 8.1

| Substance | K1:1 binding constant with valdecoxib [M⁻¹] |
| --- | --- |
| hydroxypropyl-β-cyclodextrin [HP4.6-β-CD] | 1002 |
| sulfobutyl ether6.4-β-cyclodextrin [SBE6.4-CD] | 2022 |
